For at least one compound, name, drawing or mass did not settle the structure.
Tested on: HeLa cells
Test: AAV2 FLAG-Luc transduction of HeLa cells (luciferase screen of agents)
Assay type: cell-based
From the text: A. To screen for agents that enhance rAAV transduction, any number of cells can be used. A range of concentrations of the agent to be tested can be determined based on, for instance desirable profiles of the agent, desirable toxicity profiles of the agent and/or concentration of the agents employed in vivo. The usefulness of the cell type chosen for the screen can be confirmed by testing compounds, e.g., proteosome inhibitors described in Example 1 such as LLnL and ZLL which are known to increase rAAV transduction. For example, a AAV2 FLAG-Luc vector was employed to transduce HeLa, ferret fibroblasts, IB3 and Huh (liver) cells in the presence or absence of the proteosome inhibitor MG132. […]
HeLa cells were infected for 2 hours with an MOI of 100 rAAV in the presence of agents, e.g., ritonavir (Norvir) (1, 10 and 100 μM), cyclosporin A (2.5, 25 and 250 μg/ml), epoxomicin (1, 10 and 50 μM), alcacinomycin A (5, 50 or 500 μM), chymostatin (1, 10 and 100 μM), bestatin (1, 10 and 100 μM), doxorubicin (adriamycin) (0.1, 1 and 10 μM), camptothecin (camptosar) (1, 10 and 100 μM), eicosapentanoic acid (1, 10 and 100 μM), tannic acid (2, 20, 200 and 2000 μM), simvastatin, prodrug (2, 20 and 200 μM), cisplatin (0.2, 2 and 20 μg/mL), and chloroquine (4, 40 and 400 μM). […] Protein was determined by Bradford analysis and results were expressed as relative light units per mg protein (RLU/mg). […]

CCC(C)(C)C(=O)O[C@H]1C[C@@H](C)C=C2C=C[C@H](C)[C@H](CC[C@@H]3C[C@@H](O)CC(=O)O3)[C@H]21 [simvastatin]
outcome in cell line screening: negative results
